Laboratory results: the supplement of paper PMC10849652
The other results are listed elsewhere or left out.

The chains behind the UniProt entries cited, without tags or fusion partners. Where a name states a change or a piece, a line headed by the entry shows the natural chain unless it says otherwise.
UniProt Q6P4I2: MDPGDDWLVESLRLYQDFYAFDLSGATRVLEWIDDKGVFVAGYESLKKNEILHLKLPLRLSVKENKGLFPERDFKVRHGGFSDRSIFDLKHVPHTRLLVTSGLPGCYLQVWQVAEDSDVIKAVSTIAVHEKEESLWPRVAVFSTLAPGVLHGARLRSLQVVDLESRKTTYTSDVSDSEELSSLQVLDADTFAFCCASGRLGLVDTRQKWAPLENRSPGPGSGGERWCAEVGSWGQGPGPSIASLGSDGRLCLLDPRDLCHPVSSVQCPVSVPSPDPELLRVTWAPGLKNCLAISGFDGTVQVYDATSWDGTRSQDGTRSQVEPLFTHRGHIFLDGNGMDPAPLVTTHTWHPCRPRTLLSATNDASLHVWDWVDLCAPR
UniProt Q01831: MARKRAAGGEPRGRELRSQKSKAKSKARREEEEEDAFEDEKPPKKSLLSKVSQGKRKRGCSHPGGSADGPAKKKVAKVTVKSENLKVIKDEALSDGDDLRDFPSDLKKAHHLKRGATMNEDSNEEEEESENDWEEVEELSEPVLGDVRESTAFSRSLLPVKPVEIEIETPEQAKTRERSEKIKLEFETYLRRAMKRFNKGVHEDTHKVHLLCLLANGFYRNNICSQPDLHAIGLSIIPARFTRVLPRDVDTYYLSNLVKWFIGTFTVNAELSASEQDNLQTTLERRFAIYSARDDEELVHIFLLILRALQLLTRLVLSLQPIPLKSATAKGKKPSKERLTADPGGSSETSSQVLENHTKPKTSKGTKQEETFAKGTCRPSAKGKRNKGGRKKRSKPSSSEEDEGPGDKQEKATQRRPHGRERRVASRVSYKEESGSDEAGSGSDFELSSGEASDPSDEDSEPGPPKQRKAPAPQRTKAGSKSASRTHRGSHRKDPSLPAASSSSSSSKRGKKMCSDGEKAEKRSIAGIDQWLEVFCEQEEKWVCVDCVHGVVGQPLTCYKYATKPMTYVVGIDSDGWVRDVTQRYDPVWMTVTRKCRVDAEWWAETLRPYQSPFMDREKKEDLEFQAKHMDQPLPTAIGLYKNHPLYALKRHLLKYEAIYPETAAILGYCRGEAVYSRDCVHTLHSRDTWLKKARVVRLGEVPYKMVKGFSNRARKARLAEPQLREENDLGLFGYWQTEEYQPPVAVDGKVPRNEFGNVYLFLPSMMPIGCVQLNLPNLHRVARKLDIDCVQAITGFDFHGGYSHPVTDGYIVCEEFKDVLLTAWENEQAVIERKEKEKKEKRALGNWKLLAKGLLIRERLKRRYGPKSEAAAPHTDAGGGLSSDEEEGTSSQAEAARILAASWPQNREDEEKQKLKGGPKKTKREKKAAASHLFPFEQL
UniProt P23381: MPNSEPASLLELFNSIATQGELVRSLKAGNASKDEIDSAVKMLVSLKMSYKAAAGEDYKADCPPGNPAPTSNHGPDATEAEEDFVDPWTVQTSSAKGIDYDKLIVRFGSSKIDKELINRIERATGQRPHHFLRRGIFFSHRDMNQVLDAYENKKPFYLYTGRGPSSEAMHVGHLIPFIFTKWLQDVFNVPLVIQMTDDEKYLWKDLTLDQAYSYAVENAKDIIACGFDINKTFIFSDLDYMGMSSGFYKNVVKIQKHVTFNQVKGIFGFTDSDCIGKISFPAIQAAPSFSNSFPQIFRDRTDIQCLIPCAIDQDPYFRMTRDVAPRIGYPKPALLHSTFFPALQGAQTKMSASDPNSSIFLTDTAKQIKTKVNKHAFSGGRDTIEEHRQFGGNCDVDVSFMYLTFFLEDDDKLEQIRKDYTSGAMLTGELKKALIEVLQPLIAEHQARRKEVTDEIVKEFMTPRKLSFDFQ
UniProt Q9H6Y2: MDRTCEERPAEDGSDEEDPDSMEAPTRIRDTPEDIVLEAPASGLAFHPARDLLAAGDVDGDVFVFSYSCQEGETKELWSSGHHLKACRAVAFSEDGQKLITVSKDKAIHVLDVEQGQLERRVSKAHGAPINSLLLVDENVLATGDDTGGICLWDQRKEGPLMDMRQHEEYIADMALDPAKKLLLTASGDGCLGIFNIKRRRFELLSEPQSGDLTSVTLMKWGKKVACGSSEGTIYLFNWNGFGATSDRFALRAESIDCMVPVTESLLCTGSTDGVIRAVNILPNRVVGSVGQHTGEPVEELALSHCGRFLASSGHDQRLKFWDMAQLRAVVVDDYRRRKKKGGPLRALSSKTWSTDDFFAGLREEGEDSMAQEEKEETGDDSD
UniProt Q9NQA3: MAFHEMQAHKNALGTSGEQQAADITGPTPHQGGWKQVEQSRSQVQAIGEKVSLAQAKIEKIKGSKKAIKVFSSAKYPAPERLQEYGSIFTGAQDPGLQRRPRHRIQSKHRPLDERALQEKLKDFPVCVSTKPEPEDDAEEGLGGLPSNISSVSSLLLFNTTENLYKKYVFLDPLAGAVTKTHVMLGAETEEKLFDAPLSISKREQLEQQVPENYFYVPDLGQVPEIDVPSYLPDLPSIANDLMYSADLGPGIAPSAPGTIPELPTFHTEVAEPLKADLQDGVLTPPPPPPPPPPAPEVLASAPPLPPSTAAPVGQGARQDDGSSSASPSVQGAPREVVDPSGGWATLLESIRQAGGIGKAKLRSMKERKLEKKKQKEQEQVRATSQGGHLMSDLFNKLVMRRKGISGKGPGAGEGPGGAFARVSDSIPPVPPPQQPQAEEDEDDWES
UniProt Q9Y2I8: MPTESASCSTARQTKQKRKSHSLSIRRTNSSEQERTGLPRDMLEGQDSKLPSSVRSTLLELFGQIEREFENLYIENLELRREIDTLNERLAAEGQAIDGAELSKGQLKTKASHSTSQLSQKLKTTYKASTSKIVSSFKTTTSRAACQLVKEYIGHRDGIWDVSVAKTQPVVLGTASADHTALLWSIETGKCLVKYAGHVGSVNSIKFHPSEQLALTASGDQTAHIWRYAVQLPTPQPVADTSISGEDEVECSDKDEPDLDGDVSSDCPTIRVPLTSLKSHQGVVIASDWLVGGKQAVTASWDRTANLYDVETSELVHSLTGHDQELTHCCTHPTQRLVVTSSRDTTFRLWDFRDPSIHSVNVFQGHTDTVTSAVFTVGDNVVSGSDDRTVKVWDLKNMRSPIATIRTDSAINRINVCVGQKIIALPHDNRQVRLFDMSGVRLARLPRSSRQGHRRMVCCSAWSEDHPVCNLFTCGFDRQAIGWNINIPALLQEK
UniProt Q99986: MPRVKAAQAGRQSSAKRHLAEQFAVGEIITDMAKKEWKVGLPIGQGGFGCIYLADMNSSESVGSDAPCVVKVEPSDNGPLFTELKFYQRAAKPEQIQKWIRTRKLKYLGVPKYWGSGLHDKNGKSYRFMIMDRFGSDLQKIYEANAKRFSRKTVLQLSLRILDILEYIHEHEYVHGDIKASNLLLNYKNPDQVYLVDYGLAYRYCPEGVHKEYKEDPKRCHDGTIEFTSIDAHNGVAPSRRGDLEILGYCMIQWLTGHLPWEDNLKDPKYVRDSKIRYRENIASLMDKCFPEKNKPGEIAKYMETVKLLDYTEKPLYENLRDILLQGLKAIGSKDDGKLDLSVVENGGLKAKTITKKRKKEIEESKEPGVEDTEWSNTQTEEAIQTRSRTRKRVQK
UniProt Q9NNW5: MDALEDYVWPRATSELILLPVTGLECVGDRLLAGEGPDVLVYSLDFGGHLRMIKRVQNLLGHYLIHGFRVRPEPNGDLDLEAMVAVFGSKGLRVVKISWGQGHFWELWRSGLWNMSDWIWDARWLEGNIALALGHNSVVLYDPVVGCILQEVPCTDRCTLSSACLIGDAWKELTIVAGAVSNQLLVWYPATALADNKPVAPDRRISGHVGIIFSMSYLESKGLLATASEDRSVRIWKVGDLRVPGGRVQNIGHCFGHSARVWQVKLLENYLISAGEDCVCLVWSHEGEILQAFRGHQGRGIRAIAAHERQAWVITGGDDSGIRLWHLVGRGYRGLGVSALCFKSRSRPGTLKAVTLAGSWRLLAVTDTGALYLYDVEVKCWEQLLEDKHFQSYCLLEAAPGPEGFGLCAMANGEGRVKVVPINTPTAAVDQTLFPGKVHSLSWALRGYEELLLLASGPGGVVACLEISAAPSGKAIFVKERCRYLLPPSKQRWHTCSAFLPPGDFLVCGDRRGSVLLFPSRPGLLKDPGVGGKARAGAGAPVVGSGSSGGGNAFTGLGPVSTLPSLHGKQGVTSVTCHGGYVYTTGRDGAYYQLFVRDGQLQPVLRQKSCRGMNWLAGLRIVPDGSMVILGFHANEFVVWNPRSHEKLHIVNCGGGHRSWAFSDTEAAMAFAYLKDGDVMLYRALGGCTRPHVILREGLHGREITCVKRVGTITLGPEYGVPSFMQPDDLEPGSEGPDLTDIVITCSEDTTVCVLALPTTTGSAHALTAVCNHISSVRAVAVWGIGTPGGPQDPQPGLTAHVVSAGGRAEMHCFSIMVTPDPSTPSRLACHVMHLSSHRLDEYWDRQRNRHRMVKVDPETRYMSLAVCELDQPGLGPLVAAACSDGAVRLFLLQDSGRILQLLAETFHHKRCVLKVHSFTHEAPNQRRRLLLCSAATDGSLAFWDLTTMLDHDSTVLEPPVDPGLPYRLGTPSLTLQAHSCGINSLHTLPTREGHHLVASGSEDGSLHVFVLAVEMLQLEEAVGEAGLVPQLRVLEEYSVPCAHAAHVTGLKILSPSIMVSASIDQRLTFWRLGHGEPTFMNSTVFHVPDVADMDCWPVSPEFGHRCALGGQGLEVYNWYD
UniProt Q9H267: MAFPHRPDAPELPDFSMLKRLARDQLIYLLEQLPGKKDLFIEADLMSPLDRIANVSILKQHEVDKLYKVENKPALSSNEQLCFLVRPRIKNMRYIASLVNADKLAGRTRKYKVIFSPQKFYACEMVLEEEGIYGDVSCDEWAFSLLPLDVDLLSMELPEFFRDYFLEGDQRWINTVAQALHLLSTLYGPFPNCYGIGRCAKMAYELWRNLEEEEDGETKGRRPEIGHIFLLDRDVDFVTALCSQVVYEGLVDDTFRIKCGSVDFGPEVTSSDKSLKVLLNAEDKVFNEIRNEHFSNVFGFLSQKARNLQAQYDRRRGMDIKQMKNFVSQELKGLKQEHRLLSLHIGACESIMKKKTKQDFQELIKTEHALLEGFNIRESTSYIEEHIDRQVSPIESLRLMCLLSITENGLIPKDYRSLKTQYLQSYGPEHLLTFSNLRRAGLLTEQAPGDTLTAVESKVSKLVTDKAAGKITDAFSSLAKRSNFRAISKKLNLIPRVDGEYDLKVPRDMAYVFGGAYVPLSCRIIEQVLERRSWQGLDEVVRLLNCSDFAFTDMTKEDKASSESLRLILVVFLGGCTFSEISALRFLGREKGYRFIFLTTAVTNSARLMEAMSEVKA

Key:
Assay in all cases: log2 fold change, soluble protein after heating vs DMSO (PISA); higher = thermal stabilisation; K562 lysate, 10 uM; active = over 0.2 and 3.5 SD of the protein, either way, in both replicates (recomputed)
[1] = compound: C1=CC=C(C=C1)[C@H](COC2=CC3=C(C=C2)NC(=O)N3)NC(=O)C4=CC=CN(C4=O)CC5=CC(=C(C=C5)F)F
Outline: (§1)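 Dounce homogenisation of K562 pellets in PBS pH 7.4 with 1 mM MgCl2 produced a crude extract, used at 1 mg/mL protein. Exposure to 10 μM compound lasted 30 min, and aliquots were then heated for 3 min across 48°C-58°C, pooled and brought to 0.5% NP-40 at 4°C. The supernatant after 21,000xg for 90 min was quantified by TMTpro 16plex LC-MS/MS with channel sums equalised. Duplicate values are given as log-two fold change in thermal stability relative to solvent controls.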

[2] = compound: CC1=C(SC2=C1C(=N[C@H](C3=NN=C(N32)C)CC(=O)N)C4=CC=C(C=C4)Cl)C
Outline: as §1

[3] = compound: CC1=C2C(=CC=C1)N=C(N(C2=O)C3=CC=CC=C3C)CN4C=NC5=C(N=CN=C54)N
Outline: as §1

[4] = compound: Cc1sc2c(c1C)C(c1ccc(Cl)cc1)=N[C@@H](CC(=O)OC(C)(C)C)c1nnc(C)n1-2
Outline: as §1

[5] = compound: c1ccc([C@@H]2C[C@H]2NC2CCNCC2)cc1
Outline: as §1

Measured: log2 fold change

WDR73 (UniProt Q6P4I2)
inactive: [1] 0.017 | [2] 0.056 | [3] -0.011 | [4] -0.034 | [5] 0.05

XPC (UniProt Q01831)
inactive: [1] 0.035 | [2] 0.006 | [3] -0.068 | [4] 0.025 | [5] 0.022

WARS (UniProt P23381)
inactive: [1] 0.041 | [2] -0.023 | [3] -0.031 | [4] 0.026 | [5] 0.03

WDR55 (UniProt Q9H6Y2)
inactive: [1] -0.167 | [2] 0.025 | [3] -0.006 | [4] -0.034 | [5] -0.004

WASH6P (UniProt Q9NQA3)
inactive: [1] 0.037 | [2] 0.094

WDR37 isoform 2 (UniProt Q9Y2I8)
inactive: [1] -0.056 | [2] 0.012 | [3] 0.037 | [4] 0.003 | [5] 0.045

VRK1 (UniProt Q99986)
inactive: [1] -0.002 | [2] 0.017 | [3] 0.023 | [4] -0.005 | [5] 0.034

WDR6 (UniProt Q9NNW5)
inactive: [1] -0.001 | [2] 0.02 | [3] 0.008 | [4] -0.021 | [5] -0.013

VPS33B (UniProt Q9H267)
inactive: [1] 0.013 | [2] -0.01 | [3] 0.04 | [4] -0.006 | [5] 0.014

VPS13C (UniProt Q709C8)
inactive: [1] -0.111 | [2] -0.002 | [3] 0.061 | [4] 0.018 | [5] 0.008
